Laboratory results taken from publication PMC7819943, “Rice protein-binding microarrays: a tool to detect cis-acting elements near promoter regions in rice”.
The list shows a part of the results.

Amino acid sequences for entries named in this document (tags omitted).
UniProt Q0JBA9, entry or part of it: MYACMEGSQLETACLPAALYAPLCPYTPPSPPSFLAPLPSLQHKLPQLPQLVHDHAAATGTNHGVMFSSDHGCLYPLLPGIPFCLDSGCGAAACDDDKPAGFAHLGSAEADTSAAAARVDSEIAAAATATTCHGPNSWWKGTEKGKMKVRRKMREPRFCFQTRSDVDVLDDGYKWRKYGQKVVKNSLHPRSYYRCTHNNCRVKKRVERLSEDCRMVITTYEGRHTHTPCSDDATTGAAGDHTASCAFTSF

Target: OsWRKY34 (Oryza sativa, UniProt Q0JBA9 1-250)
Test: protein-binding microarray (RPBM); PBS, 2% BSA, 51.3 ng/ul salmon testes DNA, 50 uM zinc acetate, 200 nM TF, 25 C, 1 h; high values mean tight binding
Settings: protein: recombinant; tags: N-terminal polyhistidine and DsRed monomer fusion (pET32a); label: CyDye5-dUTP incorporated in the synthesized complementary strand; 3' TTTTT single-stranded linker to array surface; dsDNA, one strand shown
In short: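 In PBS with 2% BSA, salmon testes DNA and 50 µM zinc acetate, 200 nM protein was incubated on a custom Agilent array at 25 °C for 1 h and then washed off. The array had been made double-stranded by primer extension with Cy5-dUTP and blocked with 2% BSA. The proteins were transcription factors fused N-terminally to polyhistidine and DsRed, expressed in E. coli BL21-CodonPlus and purified on Ni–NTA. The binding signal is per-feature fluorescence intensity (arbitrary units) from an Axon 4000B scanner.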

Sequence	binding signal
GAATCTTAATATTTTGTATTACCACTGATATTTTTTCTTTCGGAGTCACCTAGTGCAG	8120 fluorescence intensity (a.u.)
CCCTCGCTGTCACCTCCCCGGTCCCATCTTTGGCCGCCGTCGGAGTCACCTAGTGCAG	11600 fluorescence intensity (a.u.)
GTGTTCTTTCAGCAAATTGTGATGCCTGCCAATCTGCCATCGGAGTCACCTAGTGCAG	8250 fluorescence intensity (a.u.)
AAGGTCACTCGGCAGTATTGACAGCGGTTTTGGTTGACGTCGGAGTCACCTAGTGCAG	9430 fluorescence intensity (a.u.)
GCTCGCGCCACTTGTAATTTTTCGCGTCTCCTCTCGTCCGCGGAGTCACCTAGTGCAG	10100 fluorescence intensity (a.u.)
CTATGTTCATTGTGGCCTCGTGTATTTGTTGGGTTGTGGACGGAGTCACCTAGTGCAG	10400 fluorescence intensity (a.u.)
ATTGTTTTCAATTGATTAATTTGCTCTCTCTATTTTTTTTCGGAGTCACCTAGTGCAG	10100 fluorescence intensity (a.u.)
TTTGTCCCTGTACGGTTCTACATTGTACATATATATATATCGGAGTCACCTAGTGCAG	8230 fluorescence intensity (a.u.)
TACGAGGAGGGCCCATGCGTCGGTGGGTAGGGTGAAAAGACGGAGTCACCTAGTGCAG	8690 fluorescence intensity (a.u.)
TATTACTCTTCCTATGCGCGAACAGTATTTTGGCATCTTTCGGAGTCACCTAGTGCAG	10600 fluorescence intensity (a.u.)
TCGCATTTCTCTCTTTTTCTCTCACGTTTCTCTCCCGTTCCGGAGTCACCTAGTGCAG	10000 fluorescence intensity (a.u.)
GAAAGATGATTTGGCAAGTAAATAAATAAGAAAAGAGAAGCGGAGTCACCTAGTGCAG	62600 fluorescence intensity (a.u.)
CACAGGCTGGCCGATGGGTGGGGAGGAGGCCTGCAGGGTGCGGAGTCACCTAGTGCAG	8510 fluorescence intensity (a.u.)
ACCACCGCCGCCGCCCTCGTCCTCGCCGCCGGCGGCCATGCGGAGTCACCTAGTGCAG	8230 fluorescence intensity (a.u.)
TCGTCGATCTCGTGGCCGCCGCACTTCCTATTTAAGCACCCGGAGTCACCTAGTGCAG	12400 fluorescence intensity (a.u.)
GCCGCGTTTATCCGTTACGTTTTCATTTTTTAATACGCCCCGGAGTCACCTAGTGCAG	9210 fluorescence intensity (a.u.)
AATGCTTCTTGTGGGCCCCATCACATTTATTTTAATTATCCGGAGTCACCTAGTGCAG	9390 fluorescence intensity (a.u.)
TCCATATGCATCTACATGTTGTTTCAATGATTGGTTGTTCCGGAGTCACCTAGTGCAG	10200 fluorescence intensity (a.u.)
CATATCTGTAGCCCGCTGCTCTTCTCTCTCTTCATTTATCCGGAGTCACCTAGTGCAG	9200 fluorescence intensity (a.u.)
AAAGTTTTAGTCTTGCTGCTCCGTCCATATTTTTATAACTCGGAGTCACCTAGTGCAG	10800 fluorescence intensity (a.u.)
CGACCACGCCGCACGGCCTATTGCTCCATCCACGTTTAAACGGAGTCACCTAGTGCAG	10900 fluorescence intensity (a.u.)

For reference, part of the list above:
Sequence	binding signal
GCTCGCGCCACTTGTAATTTTTCGCGTCTCCTCTCGTCCGCGGAGTCACCTAGTGCAG	10100 fluorescence intensity (a.u.)
CTATGTTCATTGTGGCCTCGTGTATTTGTTGGGTTGTGGACGGAGTCACCTAGTGCAG	10400 fluorescence intensity (a.u.)
ATTGTTTTCAATTGATTAATTTGCTCTCTCTATTTTTTTTCGGAGTCACCTAGTGCAG	10100 fluorescence intensity (a.u.)
TTTGTCCCTGTACGGTTCTACATTGTACATATATATATATCGGAGTCACCTAGTGCAG	8230 fluorescence intensity (a.u.)
TACGAGGAGGGCCCATGCGTCGGTGGGTAGGGTGAAAAGACGGAGTCACCTAGTGCAG	8690 fluorescence intensity (a.u.)
TATTACTCTTCCTATGCGCGAACAGTATTTTGGCATCTTTCGGAGTCACCTAGTGCAG	10600 fluorescence intensity (a.u.)
TCGCATTTCTCTCTTTTTCTCTCACGTTTCTCTCCCGTTCCGGAGTCACCTAGTGCAG	10000 fluorescence intensity (a.u.)
GAAAGATGATTTGGCAAGTAAATAAATAAGAAAAGAGAAGCGGAGTCACCTAGTGCAG	62600 fluorescence intensity (a.u.)
CACAGGCTGGCCGATGGGTGGGGAGGAGGCCTGCAGGGTGCGGAGTCACCTAGTGCAG	8510 fluorescence intensity (a.u.)
ACCACCGCCGCCGCCCTCGTCCTCGCCGCCGGCGGCCATGCGGAGTCACCTAGTGCAG	8230 fluorescence intensity (a.u.)
TCGTCGATCTCGTGGCCGCCGCACTTCCTATTTAAGCACCCGGAGTCACCTAGTGCAG	12400 fluorescence intensity (a.u.)
GCCGCGTTTATCCGTTACGTTTTCATTTTTTAATACGCCCCGGAGTCACCTAGTGCAG	9210 fluorescence intensity (a.u.)

(further entries)

Sequence	binding signal
GGTTCGTCGTCAGGTGTGCTGAAACTGTCCCCATCCCTTCCGGAGTCACCTAGTGCAG	10600 fluorescence intensity (a.u.)
AATCTTTTTCTACTATCACTATATTATATTCTATTTTTACCGGAGTCACCTAGTGCAG	8820 fluorescence intensity (a.u.)
TTCTCCACCATTCCATCTCTTCTCTTTCTGCCTGAGCTGCCGGAGTCACCTAGTGCAG	11800 fluorescence intensity (a.u.)
AATTAATTTCTCGCTCCATTGTGTGTGTGGCCAAAGAAGACGGAGTCACCTAGTGCAG	8570 fluorescence intensity (a.u.)
CCGTCCCACTCCCACCCACGCCGCCGCCACCGCCGCCGCCCGGAGTCACCTAGTGCAG	13200 fluorescence intensity (a.u.)
TGCTATACTACTTGTCACATCCATCATCTCTCATTCAAATCGGAGTCACCTAGTGCAG	10400 fluorescence intensity (a.u.)
TCGTAGTCGTGATTTTCTACTTCAGAAACTTGCTGCTTCACGGAGTCACCTAGTGCAG	8170 fluorescence intensity (a.u.)
GTTTGACCCGGTTTTGGTCTCAGCGTGGGACCCACGTGGACGGAGTCACCTAGTGCAG	8240 fluorescence intensity (a.u.)
ATGGATGGACGTGCTGATGTGATGATCCCTTCTTATTGTTCGGAGTCACCTAGTGCAG	9770 fluorescence intensity (a.u.)
AACCGTGCACGTGACGCTTTCAGTTTCTTTTCTTTTCTTTCGGAGTCACCTAGTGCAG	8890 fluorescence intensity (a.u.)
GGCTCACGTATTTTCCTGGTTGATCTAGACCATCCTTTTTCGGAGTCACCTAGTGCAG	8860 fluorescence intensity (a.u.)
TACTCTATACTCTCTCCGTACTCATGAAAGAAGTCGTTTTCGGAGTCACCTAGTGCAG	8410 fluorescence intensity (a.u.)
ACCTCCGCCTCCGCCTCCGCCTCCGTCTCCACCTCCGCCTCGGAGTCACCTAGTGCAG	8940 fluorescence intensity (a.u.)
GTACTGTAGTAGCCATTATTTTTTCCTGTTCATATGCTAACGGAGTCACCTAGTGCAG	12000 fluorescence intensity (a.u.)
GCTTTGAACACTCATCTCCTCACCGTGTTTGTTAGAGCTCCGGAGTCACCTAGTGCAG	11200 fluorescence intensity (a.u.)
ATCGCAAATTTGGCTTCCTTTTCACCTTTCCTCGCTTCAACGGAGTCACCTAGTGCAG	11200 fluorescence intensity (a.u.)
GTTCTATATGTTATAGGCTCAATTTTTTTTGTCAACTTTACGGAGTCACCTAGTGCAG	9180 fluorescence intensity (a.u.)
GCGCCGCCGAACCACCCTCACCACCCACCGCAGCCGCGTCCGGAGTCACCTAGTGCAG	9940 fluorescence intensity (a.u.)
GCCAGTCCAAACCTCACTTGACTGGAGCTAACCGCTGACGCGGAGTCACCTAGTGCAG	8140 fluorescence intensity (a.u.)
ATAATGGTCCGTGACATATCCATCCTTAATCCATCAATTTCGGAGTCACCTAGTGCAG	8450 fluorescence intensity (a.u.)
AGGCTTACCAGTTTTAGTACTACCACACTCCTACTGCACCCGGAGTCACCTAGTGCAG	10000 fluorescence intensity (a.u.)
